{
  "source": "patent US9260507B2",
  "about": "“Peptide promoting cell adhesion and migration” (Symatese, priority 2009, dated 2016)",
  "key": {"[1]": {"tested_on": "HT1080 cells", "assay": "Cell adhesion test (crystal violet colorimetric) on immobilised peptide, HT1080 cells", "type": "cell-based, Human", "description": "(A, B) Dose-dependent adhesion of normal human keratinocytes and cells of the HT1080 strain to the peptide KKLRIKSKEK (SEQ ID NO: 1) and to the LG4/5 protein. The peptide (A) and the protein LG4/5 (B) were immobilised on 96-well plates at the concentrations indicated on the abscissa. 6·10^4 cells were deposited in each well and the plates were incubated at 37° C. for 1 hour. After washing, the adherent cells were fixed and cell adhesion was measured as described in the methodology section. (C) Observation of normal human keratinocytes and HT1080 cells adhering to KKLRIKSKEK peptide (SEQ ID NO: 1) and to the LG4/5 protein. The observation was made with a Zeiss Axiovert 40 microscope equipped with a PlasDic interference unit. 50 μm bar.\n(A) A decreasing range of peptides KKLRIKSKEK (SEQ ID NO: 1) and NSFMALYLSKGR (SEQ ID NO: 21) was immobilised in 96-well Microlon plates and the amount actually adsorbed was determined by protein assay with reference to a corresponding range of peptides made extemporaneously. The quantities of peptide tested are indicated on the abscissa of the graph. 6·10^4 cells were deposited in each well and the plates were incubated at 37° C. for 1 hour. After washing, the adherent cells were fixed and cell adhesion was measured as described in the methodology section. (B) Observation of HT1080 cells adhering to peptides KKLRIKSKEK (SEQ ID NO: 1) and NSFMALYLSKGR (SEQ ID NO: 21). The observation was made with a Zeiss Axiovert 40 microscope equipped with a PlasDic interference unit. 50 μm bar.\nThe cells used were derived from strains expressing a large amount of syndecan-1 on their surface (Okamoto et al., 2003). These were cells of the strain HT1080 (fibrosarcoma, Human), American Type Culture Collection CCL-121.\nPeptides, purified LG4/5 protein (Belin and Rousselle, 2007) and purified LN332 (Rousselle et al., 1991) were used in the cell adhesion experiments. A range of 7 decreasing concentrations was produced by successive dilution in PBS (phosphate buffered saline, KH2PO4 1.54 mM; Na2HPO4 1.42 mM; NaCl 131 mM) or immobilisation buffer Na2CO3 20 mM pH 9, from a 1 mg/ml starting solution. These solutions were immediately distributed onto 96-well culture plates (Greiner, Dutscher, Brumath, France) at 100 μl per well. […]\nThe experiments comparing the adhesion induced by the peptides KKLRIKSKEK (SEQ ID NO: 1) and NSFMALYLSKGR (SEQ ID NO: 21) were performed using Microlon 96-well plates (Greiner, Dutscher) on which the two peptides had been immobilised with the same efficacy. The amount of peptide immobilised was determined with bicinchoninic acid (BCA Protein Assay, Perbio Science, Brebière, France). […]"}, "[2]": {"tested_on": "normal human keratinocytes", "assay": "NHK wound closure in a confluent keratinocyte layer (time-lapse videomicroscopy)", "type": "cell-based", "details": "LG4/5 protein 10 μg/ml, peptide 20 μg/ml", "description": "NHKs were seeded in 24-well plates and grown until confluence. The medium was removed and a wound was made in the cell layer using a pipette tip. After rinsing with PBS, the areas were incubated with KBM-2 culture medium at 37° C. in the absence or presence of LG4/5 protein (10 μg/ml) or the peptide KKLRIKSKEK (SEQ ID NO: 1) (20 μg/ml). The behaviour of cells around the wound was then immediately followed by time-lapse videomicroscopy with an image recorded every hour for 48 hours in a moist chamber containing 5% CO2. (A) Images recorded at the beginning of the experiment, at 24 h and 48 h show the total area of the wound covered by cells during the experiment and under each condition (the black lines represent the edges of the wound at the start of recording). Bar, […]. (B) The wounded areas (without cells) were measured at the start, at 24 h (grey bars) and 48 h (black bars) using the Adobe Photoshop CS3 Extended program (version 10.0) in the different conditions. The rate of closure of each wound was expressed as a percentage of the initial wound. […]\nVideomicroscopy experiments were performed with a Zeiss Axiovert 100M microscope fitted with a CCD camera (1 image every 10 minutes or every hour). In the experiments of FIG. 11, we analysed the movements of 100 cells using Metaview software (Roper Scientific, Princeton Instruments, Evry, France)."}},
  "note": "Part of at least one peptide drawing is inferred or uncertain, most often the ends. Ends that are not written are not given here.",
  "data": [
    {"sequence": "KKLRIKSKEK [KKLRIKSKEK]", "values": [
      {"measurement": "Quantity of immobilised peptide at which cell adhesion was induced", "setting": "[1]; HT1080 cells, Microlon plates, amount actually adsorbed quantified, 1 hour without serum", "result": "about 0.025 μg"},
      {"measurement": "Mean quantity of peptide placed in the wells for immobilisation giving maximum cell adhesion", "setting": "[1]; HT1080 cells, quantity placed, not actually immobilised", "result": 10, "unit": "micrograms"},
      {"measurement": "Morphology of HT1080 cells adhering to the peptide", "setting": "[1]; microscopy, FIG. 6B", "result": "exhibit the morphology typical of syndecan-1 dependent adhesion to fragment LG4/5"},
      {"measurement": "Adhesion of HT1080 cells to the immobilised peptide", "setting": "[1]; peptide immobilised on 96-well plates, 6·10^4 cells/well, 37° C. for 1 hour", "result": "induces cell adhesion of HT1080 cells and normal human keratinocytes in a dose dependent manner"},
      {"measurement": "Area of the wound covered by cells (wound closure)", "setting": "[2]; 24 h", "result": 72, "unit": "%"},
      {"measurement": "Area of the wound covered by cells (wound closure)", "setting": "[2]; 48 h", "result": 96, "unit": "%"}
    ]}
  ]
}
